Measurements reported in patent US20160347802A1.
No constants are given. Whether binding was seen depends on the method and setting.

How the values were obtained:
[1] = target: T1, human DRAXIN, AVEXIS prey or bait protein (human), Q8NBI3; experiment: AVEXIS, prey DRAXIN on bait DRAXIN; details: remark: other sources report otherwise
T1 chain: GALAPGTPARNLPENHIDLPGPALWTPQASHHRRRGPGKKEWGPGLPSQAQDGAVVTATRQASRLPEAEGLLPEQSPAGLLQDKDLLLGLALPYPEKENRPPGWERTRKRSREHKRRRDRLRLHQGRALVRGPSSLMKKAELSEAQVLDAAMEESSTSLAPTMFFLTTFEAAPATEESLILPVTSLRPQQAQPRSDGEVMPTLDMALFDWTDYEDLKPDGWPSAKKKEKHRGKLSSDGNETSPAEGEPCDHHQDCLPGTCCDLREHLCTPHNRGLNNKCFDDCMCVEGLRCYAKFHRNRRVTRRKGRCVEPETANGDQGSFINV

[2] = target: T1, human DRAXIN, AVEXIS prey or bait …; experiment: AVEXIS, pentameric prey human DRAXIN on bait hDRAXIN; details: remark: other sources report otherwise

B1: human DRAXIN, AVEXIS prey or bait protein, Q8NBI3 26-349 (ligand)
chain: T1 chain
Q: With B1 as the binder, how does the binding [1] read?
A: no binding

Q: And the binding [2]?
A: no binding
